The source of these data is the supplement of paper PMC12819154, “High-throughput peptide-centric local stability assay extends protein–ligand identification to membrane proteins, tissues and bacteria” (Nature Structural & Molecular Biology, 2025).

Sequences of proteins named here, by UniProt entry; tags and fusion partners are left off. A change or cut given only in a name is not applied to a line headed by its entry.
UniProt Q8C0J6: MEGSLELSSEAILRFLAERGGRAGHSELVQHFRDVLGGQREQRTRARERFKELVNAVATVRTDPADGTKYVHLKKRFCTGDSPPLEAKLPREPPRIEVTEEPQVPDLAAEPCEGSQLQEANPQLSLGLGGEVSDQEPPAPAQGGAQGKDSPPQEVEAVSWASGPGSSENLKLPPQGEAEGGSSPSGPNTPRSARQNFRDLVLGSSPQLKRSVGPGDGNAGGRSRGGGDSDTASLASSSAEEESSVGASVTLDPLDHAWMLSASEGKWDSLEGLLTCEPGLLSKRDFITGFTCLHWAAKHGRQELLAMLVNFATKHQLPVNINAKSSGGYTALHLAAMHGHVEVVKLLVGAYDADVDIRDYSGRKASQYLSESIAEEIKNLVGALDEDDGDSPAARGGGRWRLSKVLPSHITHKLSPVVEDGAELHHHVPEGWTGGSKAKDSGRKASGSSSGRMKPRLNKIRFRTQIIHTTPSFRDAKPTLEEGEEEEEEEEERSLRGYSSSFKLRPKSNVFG
UniProt Q8BVP5: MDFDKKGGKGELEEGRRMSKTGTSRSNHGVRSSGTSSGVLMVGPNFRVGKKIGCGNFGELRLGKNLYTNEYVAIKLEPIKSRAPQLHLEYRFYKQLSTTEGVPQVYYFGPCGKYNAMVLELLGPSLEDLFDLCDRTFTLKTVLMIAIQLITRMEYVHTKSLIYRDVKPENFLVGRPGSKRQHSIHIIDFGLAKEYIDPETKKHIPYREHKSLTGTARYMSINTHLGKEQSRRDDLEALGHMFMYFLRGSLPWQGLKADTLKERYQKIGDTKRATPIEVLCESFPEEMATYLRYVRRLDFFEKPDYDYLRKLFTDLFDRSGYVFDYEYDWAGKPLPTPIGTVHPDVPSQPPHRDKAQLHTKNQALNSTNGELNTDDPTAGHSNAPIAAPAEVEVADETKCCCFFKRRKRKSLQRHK
UniProt Q8C052: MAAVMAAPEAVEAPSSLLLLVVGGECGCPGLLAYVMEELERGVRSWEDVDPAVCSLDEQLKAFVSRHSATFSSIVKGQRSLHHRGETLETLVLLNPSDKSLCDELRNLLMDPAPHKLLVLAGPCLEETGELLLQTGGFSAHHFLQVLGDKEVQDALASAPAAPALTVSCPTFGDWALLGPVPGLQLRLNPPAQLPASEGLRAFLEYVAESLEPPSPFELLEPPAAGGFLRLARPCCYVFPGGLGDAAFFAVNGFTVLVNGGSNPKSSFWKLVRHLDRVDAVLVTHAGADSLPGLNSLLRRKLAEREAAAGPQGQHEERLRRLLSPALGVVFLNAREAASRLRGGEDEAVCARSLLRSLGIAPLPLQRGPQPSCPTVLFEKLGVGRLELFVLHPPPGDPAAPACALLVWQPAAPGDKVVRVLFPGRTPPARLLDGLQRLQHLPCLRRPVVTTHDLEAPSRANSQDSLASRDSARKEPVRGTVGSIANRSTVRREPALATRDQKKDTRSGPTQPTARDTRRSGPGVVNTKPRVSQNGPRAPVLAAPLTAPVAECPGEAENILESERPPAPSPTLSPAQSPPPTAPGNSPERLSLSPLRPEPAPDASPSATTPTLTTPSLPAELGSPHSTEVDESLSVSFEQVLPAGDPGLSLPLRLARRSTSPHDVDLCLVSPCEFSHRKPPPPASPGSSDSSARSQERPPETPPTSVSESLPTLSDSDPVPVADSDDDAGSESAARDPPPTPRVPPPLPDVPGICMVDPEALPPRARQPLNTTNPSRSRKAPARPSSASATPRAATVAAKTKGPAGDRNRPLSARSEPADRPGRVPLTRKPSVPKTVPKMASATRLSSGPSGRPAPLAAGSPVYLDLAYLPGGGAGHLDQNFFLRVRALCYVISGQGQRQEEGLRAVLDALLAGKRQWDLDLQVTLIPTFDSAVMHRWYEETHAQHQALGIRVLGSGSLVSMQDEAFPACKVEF
UniProt Q8C2S0: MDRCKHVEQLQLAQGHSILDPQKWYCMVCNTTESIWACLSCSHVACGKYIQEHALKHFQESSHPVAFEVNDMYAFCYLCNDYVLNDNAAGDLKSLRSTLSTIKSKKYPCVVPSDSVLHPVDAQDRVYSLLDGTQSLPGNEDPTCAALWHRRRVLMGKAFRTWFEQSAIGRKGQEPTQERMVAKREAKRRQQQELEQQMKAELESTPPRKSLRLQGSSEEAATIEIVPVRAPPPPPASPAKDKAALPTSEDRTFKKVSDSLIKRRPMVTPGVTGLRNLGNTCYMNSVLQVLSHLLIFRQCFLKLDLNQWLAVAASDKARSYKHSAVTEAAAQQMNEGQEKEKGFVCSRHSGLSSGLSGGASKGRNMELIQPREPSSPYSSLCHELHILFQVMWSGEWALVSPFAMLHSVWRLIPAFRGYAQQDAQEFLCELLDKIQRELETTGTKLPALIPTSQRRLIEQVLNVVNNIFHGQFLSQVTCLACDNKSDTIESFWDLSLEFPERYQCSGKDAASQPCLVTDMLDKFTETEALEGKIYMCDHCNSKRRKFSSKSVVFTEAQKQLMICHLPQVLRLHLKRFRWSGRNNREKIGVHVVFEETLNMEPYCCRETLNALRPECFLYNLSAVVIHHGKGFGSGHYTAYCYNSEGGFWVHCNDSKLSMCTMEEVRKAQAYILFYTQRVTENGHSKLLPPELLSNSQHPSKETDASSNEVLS
UniProt Q8C7V8: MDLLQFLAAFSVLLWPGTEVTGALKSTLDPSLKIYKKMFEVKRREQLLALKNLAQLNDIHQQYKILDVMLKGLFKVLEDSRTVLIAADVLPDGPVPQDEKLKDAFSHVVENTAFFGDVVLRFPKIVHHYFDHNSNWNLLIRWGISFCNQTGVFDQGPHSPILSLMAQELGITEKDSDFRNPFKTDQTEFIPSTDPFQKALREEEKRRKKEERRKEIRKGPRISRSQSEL
UniProt Q8C147: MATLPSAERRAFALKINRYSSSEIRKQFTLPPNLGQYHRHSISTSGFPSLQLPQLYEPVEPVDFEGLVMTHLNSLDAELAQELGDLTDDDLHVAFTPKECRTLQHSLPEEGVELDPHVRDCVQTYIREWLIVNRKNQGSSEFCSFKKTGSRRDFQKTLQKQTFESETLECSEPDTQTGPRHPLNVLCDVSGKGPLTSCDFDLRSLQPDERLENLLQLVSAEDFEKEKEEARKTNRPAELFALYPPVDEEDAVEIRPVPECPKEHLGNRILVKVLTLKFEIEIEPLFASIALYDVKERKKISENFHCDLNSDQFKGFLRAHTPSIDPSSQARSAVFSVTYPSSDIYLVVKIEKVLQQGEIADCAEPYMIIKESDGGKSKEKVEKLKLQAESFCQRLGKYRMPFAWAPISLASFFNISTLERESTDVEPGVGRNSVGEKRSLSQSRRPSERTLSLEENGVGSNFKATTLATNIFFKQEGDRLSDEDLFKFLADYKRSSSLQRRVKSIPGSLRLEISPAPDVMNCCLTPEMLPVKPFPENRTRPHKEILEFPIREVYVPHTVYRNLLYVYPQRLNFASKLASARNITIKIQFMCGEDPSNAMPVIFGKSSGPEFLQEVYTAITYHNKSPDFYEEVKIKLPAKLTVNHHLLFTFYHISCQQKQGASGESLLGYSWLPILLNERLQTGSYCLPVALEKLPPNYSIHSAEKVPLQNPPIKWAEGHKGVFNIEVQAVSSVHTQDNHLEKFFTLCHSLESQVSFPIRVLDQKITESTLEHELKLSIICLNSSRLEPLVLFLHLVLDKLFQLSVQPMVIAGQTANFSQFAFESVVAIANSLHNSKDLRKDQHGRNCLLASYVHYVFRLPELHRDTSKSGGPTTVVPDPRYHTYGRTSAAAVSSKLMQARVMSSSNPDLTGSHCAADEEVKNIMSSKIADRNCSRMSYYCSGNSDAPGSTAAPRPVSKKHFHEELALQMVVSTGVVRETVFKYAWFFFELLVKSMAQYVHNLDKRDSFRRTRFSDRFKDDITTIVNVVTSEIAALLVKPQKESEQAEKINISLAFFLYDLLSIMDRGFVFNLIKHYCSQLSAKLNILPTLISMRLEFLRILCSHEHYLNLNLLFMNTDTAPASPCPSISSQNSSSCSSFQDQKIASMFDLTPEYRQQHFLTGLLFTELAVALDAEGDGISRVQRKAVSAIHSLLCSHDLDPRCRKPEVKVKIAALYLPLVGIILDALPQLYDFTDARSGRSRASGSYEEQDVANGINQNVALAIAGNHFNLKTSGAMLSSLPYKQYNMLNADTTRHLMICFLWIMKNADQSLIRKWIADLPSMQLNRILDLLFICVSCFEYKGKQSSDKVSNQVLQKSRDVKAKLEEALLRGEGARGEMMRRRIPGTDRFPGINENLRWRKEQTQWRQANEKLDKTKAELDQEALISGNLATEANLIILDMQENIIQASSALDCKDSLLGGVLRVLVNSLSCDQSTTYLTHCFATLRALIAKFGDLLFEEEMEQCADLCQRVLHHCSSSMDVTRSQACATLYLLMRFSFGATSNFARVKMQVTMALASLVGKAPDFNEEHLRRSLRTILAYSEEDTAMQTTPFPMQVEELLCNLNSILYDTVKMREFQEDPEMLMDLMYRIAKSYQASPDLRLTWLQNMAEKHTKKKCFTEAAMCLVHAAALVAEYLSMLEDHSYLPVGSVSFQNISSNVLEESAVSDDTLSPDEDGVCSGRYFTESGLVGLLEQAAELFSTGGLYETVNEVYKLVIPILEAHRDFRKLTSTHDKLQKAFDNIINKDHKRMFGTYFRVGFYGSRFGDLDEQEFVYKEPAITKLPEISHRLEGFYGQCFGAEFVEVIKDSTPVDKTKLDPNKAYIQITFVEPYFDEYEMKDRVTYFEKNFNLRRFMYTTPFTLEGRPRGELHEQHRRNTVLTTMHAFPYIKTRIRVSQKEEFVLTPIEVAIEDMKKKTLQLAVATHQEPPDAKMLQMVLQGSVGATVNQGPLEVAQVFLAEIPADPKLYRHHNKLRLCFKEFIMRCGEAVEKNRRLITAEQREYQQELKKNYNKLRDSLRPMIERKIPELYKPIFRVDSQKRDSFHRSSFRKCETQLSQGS
UniProt Q8C196: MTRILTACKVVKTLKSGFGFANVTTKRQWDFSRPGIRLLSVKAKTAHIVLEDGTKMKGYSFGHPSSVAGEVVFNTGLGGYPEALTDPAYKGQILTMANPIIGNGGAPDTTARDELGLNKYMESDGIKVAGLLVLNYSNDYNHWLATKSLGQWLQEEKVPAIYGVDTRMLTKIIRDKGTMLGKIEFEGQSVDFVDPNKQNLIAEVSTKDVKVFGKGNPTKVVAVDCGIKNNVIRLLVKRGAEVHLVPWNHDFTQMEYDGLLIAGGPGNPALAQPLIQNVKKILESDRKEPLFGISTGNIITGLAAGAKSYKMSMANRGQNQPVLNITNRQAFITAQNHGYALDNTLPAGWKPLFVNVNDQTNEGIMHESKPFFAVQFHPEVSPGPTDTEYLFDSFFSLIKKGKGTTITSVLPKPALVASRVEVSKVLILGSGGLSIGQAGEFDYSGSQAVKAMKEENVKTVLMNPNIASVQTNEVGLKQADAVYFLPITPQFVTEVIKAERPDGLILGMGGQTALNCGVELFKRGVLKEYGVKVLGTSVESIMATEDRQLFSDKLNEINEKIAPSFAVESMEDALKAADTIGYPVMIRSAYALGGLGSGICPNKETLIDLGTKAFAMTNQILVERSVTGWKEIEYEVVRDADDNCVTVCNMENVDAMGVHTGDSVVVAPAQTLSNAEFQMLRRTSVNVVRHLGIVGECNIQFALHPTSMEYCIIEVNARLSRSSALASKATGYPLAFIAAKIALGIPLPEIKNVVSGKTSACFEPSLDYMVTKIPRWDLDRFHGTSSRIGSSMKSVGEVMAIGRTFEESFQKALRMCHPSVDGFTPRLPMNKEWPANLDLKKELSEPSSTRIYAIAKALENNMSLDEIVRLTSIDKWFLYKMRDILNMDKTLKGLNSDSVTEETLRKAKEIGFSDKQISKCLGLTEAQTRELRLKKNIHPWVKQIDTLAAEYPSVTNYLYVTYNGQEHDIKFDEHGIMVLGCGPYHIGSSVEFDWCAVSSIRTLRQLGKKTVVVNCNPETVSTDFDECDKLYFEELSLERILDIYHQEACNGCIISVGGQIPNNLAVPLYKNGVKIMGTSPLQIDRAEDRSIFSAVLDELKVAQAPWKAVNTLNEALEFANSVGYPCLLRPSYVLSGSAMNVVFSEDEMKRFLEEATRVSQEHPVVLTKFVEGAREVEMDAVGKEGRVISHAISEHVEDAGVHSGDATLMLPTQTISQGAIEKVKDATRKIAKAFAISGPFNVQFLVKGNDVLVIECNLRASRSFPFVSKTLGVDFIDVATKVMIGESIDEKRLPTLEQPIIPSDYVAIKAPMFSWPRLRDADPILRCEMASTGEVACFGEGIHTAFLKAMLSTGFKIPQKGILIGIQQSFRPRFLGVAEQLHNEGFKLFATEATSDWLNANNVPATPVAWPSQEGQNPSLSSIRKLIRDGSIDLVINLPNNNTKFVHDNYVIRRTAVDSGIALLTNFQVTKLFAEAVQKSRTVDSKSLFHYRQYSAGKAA

This is one part of the list. Most values lie at the level of the controls, where differences are scatter.

Compound in the assay: CN[C@@H]1C[C@H]2O[C@@](C)([C@@H]1OC)n1c3ccccc3c3c4c(c5c6ccccc6n2c5c31)C(=O)NC4 [staurosporine]
Nature of the assay: log2 fold change of tryptic peptide abundance, ligand vs vehicle (limited proteolysis) (log2 ratio); higher = more trypsin-susceptible (destabilized). Conditions: ligand concentration: 20 uM; sample: mouse liver crude lysate; replicate design: treated separately.
With “UniProt Q8BVI5 (peptide sequence: QLLAEQVSSHTTSSPLHSR, peptide start residue: 22)”, the log2 fold change turned out to be 0.19.
With “UniProt Q8BZW8 (peptide sequence: LQHPLGVAWDEER, peptide start residue: 474)” the figure was -0.238.
As for “UniProt Q8BZG5 (peptide sequence: AALETVIR, peptide start residue: 343)”, the log2 fold change came out at 0.48.
In the case of “UniProt Q8C0D4 (peptide sequence: GAVIEMASK, peptide start residue: 518)” it was 0.233; in that of “UniProt Q8BX02 (peptide sequence: ASQAGQTALMLAVSHGR, peptide start residue: 727)”, -0.591.
In the case of “UniProt Q8BWG8 (peptide sequence: ACGVDYEVK, peptide start residue: 139)” it was 0.114; in that of “UniProt Q8C0J6 (peptide sequence: FRTQIIHTTPSFR, peptide start residue: 462)”, -0.49.
In the case of “UniProt Q8BVP5 (peptide sequence: EYIDPETKK, peptide start residue: 191)” it was -1.14; in that of “UniProt Q8C0S1 (peptide sequence: RQYNKLR, peptide start residue: 98)”, 0.468.
Regarding “UniProt Q8C6G8 (peptide sequence: LSQSDEDVIR, peptide start residue: 100)”, the log2 fold change amounted to 0.137.
With “UniProt Q8C0J2 (peptide sequence: QTFSAPGFK, peptide start residue: 524)” the figure was 0.339; with “UniProt Q8BWW4 (peptide sequence: ALFKNENCPK, peptide start residue: 213)”, -0.332; with “UniProt Q8C1M2 (peptide sequence: ALGEEEEEPSR, peptide start residue: 118)”, -0.159.
With “UniProt Q8C804 (peptide sequence: VSHMGEDLENK, peptide start residue: 610)” the figure was 0.573; with “UniProt Q8C4V1 (peptide sequence: FTMIEIK, peptide start residue: 693)”, 0.263.
With “UniProt Q8C052 (peptide sequence: ANSQDSLASR, peptide start residue: 460)” the figure was -0.247; with “UniProt Q8BZI0 (peptide sequence: IYDEVPYEK, peptide start residue: 556)”, -0.149; with “UniProt Q8C0V0 (peptide sequence: SLLNHTPPSGRPR, peptide start residue: 33)”, -0.274.
Take “UniProt Q8C2S0 (peptide sequence: RFRWSGR, peptide start residue: 552)”: the log2 fold change is -0.0779.
For “UniProt Q8BZH1 (peptide sequence: MRVNEYK, peptide start residue: 114)”, the log2 fold change worked out at 0.151.
“UniProt Q8C7V8 (peptide sequence: STLDPSLK, peptide start residue: 26)”: the log2 fold change is -0.234.
With “UniProt Q8C170 (peptide sequence: SLEDRPQFISR, peptide start residue: 2474)” the figure was -0.313.
For “UniProt Q8C0L9 (peptide sequence: EFGVNGLIYDR, peptide start residue: 603)”, the log2 fold change came out at 0.176.
With “UniProt Q8C147 (peptide sequence: AKLEEALLR, peptide start residue: 1363)” the figure was -0.137.
In the case of “UniProt Q8BWY4 (peptide sequence: SSEDLICEGK, peptide start residue: 248)” it was -0.0318; in that of “UniProt Q8BXA5 (peptide sequence: GLRPVFQFGTHSESER, peptide start residue: 377)”, 0.38; in that of “UniProt Q8C3S2 (peptide sequence: LMRPNGVQAVVR, peptide start residue: 318)”, -0.463.
With “UniProt Q8C0E3 (peptide sequence: MDELGAGIAQSR, peptide start residue: 243)” the figure was 0.172; with “UniProt Q8C2E7 (peptide sequence: SSADSNMDDICK, peptide start residue: 177)”, -0.973.
As for “UniProt Q8BYM8 (peptide sequence: LVNTVPSATAEPGDSDKR, peptide start residue: 192)”, the log2 fold change is 0.21.
In the case of “UniProt Q8C196 (peptide sequence: LPMNKEWPANLDLKK, peptide start residue: 827)” it was -0.256.
In the case of “UniProt Q8C0I1 (peptide sequence: KFYITKFK, peptide start residue: 436)” it was -0.0141; in that of “UniProt Q8C176 (peptide sequence: FSDNYYR, peptide start residue: 779)”, 0.0513.
With “UniProt Q8C0D7 (peptide sequence: RLDTDLAR, peptide start residue: 99)” the figure was -0.384; with “UniProt Q8BWP5 (peptide sequence: VFTAYDVFR, peptide start residue: 126)”, -0.456.
